Reference: paper PMC6831704
These are yes or no findings as the source states them, for the method shown. In cells and extracts the contact can be indirect. These calls come from enrichment with a bait or labelling near it, and not all partners need be listed.

Molecular target: Myc-BirA*-Tax-His (HTLV-1) (UniProt P03409)
Experiment: proximity labelling; BioID: HEK293T cells transfected with BirA*-encoding vectors for 24 h, biotin 50 µM for 18 h; streptavidin pulldown on whole cell lysates, mass spectrometry; control: BirA* only; three replicas

Substance: Sequestosome-1 (SQSTM-1/p62), endogenous in HEK293T cells (from UniProt Q13501 1-440)
- binding: binds
